Laboratory results from the supplement of paper PMC9233669.
Variants at the floor of the assay are shown more often than the library holds them.

Experiments:
biotinyl-Trp-oxazolone = assay: self-aminoacylation, catalytic enhancement (BWO) (fold over background); higher = more active; k-Seq, kA / k0A0; sequences stand for … in GGGAAUGGAUCCACAUCUACGAAUUC…UUCACUGCAGACUUGACGAAGCUG
Summary of the method: (§1)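 Mutagenized RNA pools with a 21-nt variable region (0.43 μM) were reacted with each biotinyl-aminoacyl-oxazolone at 2–1250 μM for 90 minutes at room temperature, in 50 μL HEPES/NaCl/KCl/MgCl2/CaCl2 buffer containing 5% acetonitrile at pH 6.9–7.0. RNA captured on streptavidin was quantified by triplicate qPCR and by Illumina sequencing. The fraction reacted for each sequence was fit to a pseudo-first-order model with bootstrapping, and catalytic enhancement is the median kA divided by the uncatalyzed rate, taken as the low-activity peak of a bimodal Gaussian fit.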

biotinyl-Leu-oxazolone = assay: self-aminoacylation, catalytic enhancement (BLO) (fold over background); higher = more active; k-Seq, kA / k0A0; sequences stand for … in GGGAAUGGAUCCACAUCUACGAAUUC…UUCACUGCAGACUUGACGAAGCUG
Summary of the method: as §1

biotinyl-Val-oxazolone = assay: self-aminoacylation, catalytic enhancement (BVO) (fold over background); higher = more active; k-Seq, kA / k0A0; sequences stand for … in GGGAAUGGAUCCACAUCUACGAAUUC…UUCACUGCAGACUUGACGAAGCUG
Summary of the method: as §1

biotinyl-Ile-oxazolone = assay: self-aminoacylation, catalytic enhancement (BIO) (fold over background); higher = more active; k-Seq, kA / k0A0; sequences stand for … in GGGAAUGGAUCCACAUCUACGAAUUC…UUCACUGCAGACUUGACGAAGCUG
Summary of the method: as §1

biotinyl-Met-oxazolone = assay: self-aminoacylation, catalytic enhancement (BMO) (fold over background); higher = more active; k-Seq, kA / k0A0; sequences stand for … in GGGAAUGGAUCCACAUCUACGAAUUC…UUCACUGCAGACUUGACGAAGCUG
Summary of the method: as §1

biotinyl-Phe-oxazolone = assay: self-aminoacylation, catalytic enhancement (BFO) (fold over background); higher = more active; k-Seq, kA / k0A0; sequences stand for … in GGGAAUGGAUCCACAUCUACGAAUUC…UUCACUGCAGACUUGACGAAGCUG
Summary of the method: as §1

Row | Sequence | self-aminoacylation (biotinyl-Trp-oxazolone) | self-aminoacylation (biotinyl-Leu-oxazolone) | self-aminoacylation (biotinyl-Val-oxazolone) | self-aminoacylation (biotinyl-Ile-oxazolone) | self-aminoacylation (biotinyl-Met-oxazolone) | self-aminoacylation (biotinyl-Phe-oxazolone)
1 | CCACACCUCAAGCAAACGGUC [Fam1B.1 aminoacylation ribozyme variant] | 0.884 | 0.804 | 0.853 | 0.838 | 0.655 | 1.56
2 | CCACACCUCAAGCAAUCCGUC [Fam1B.1 aminoacylation ribozyme variant] | 0.678 | 1.24 | 1.57 | 1.41 | 1.02 | 1.25
3 | CCACACCUCAAGCAAUCGGAC [Fam1B.1 aminoacylation ribozyme variant] | 0.428 | 0.797 | 1.02 | 1.1 | 0.89 | 0.453
4 | CCACACCUCAAGCACUCGGUC [Fam1B.1 aminoacylation ribozyme variant] | 1.29 | 1.07 | 1.9 | 1.29 | 1.33 | 1.51
5 | CCACACGUCAAGCUAUCGGUC [Fam1B.1 aminoacylation ribozyme variant] | 1.18 | 1.22 | 1.79 | 1.04 | 1.21 | 0.826
6 | CCACACGUCCAGCAAUCGGUC [Fam1B.1 aminoacylation ribozyme variant] | 1.18 | 1.18 | 1.92 | 1.38 | 1.28 | 0.691
7 | CCACACUACAAGCAAUAGGUC [Fam1B.1 aminoacylation ribozyme variant] | 0.54 | 0.437 | 0.738 | 0.628 | 0.402 | 1.28
8 | CCACACUACAAGCAAUCGAUC [Fam1B.1 aminoacylation ribozyme variant] | 0.543 | 0.441 | 0.531 | 0.46 | 0.376 | 0.798
9 | CCACACUACCAGCAAUCGGUC [Fam1B.1 aminoacylation ribozyme variant] | 1.08 | 1.01 | 1.38 | 1.27 | 0.916 | 1.4
10 | CCACACUACGAGCAAUCGGUC [Fam1B.1 aminoacylation ribozyme variant] | 0.666 | 1.17 | 1.16 | 1.01 | 0.892 | 0.95
11 | CCACACUCCAAGCAAUCCGUC [Fam1B.1 aminoacylation ribozyme variant] | 1.51 | 0.843 | 1.34 | 1.63 | 1.13 | 1.39
12 | CCACACUCCAAGCAAUCGUUC [Fam1B.1 aminoacylation ribozyme variant] | 0.617 | 0.477 | 1 | 0.967 | 0.663 | 1.19
13 | CCACACUCCAAGCAAUGGGUC [Fam1B.1 aminoacylation ribozyme variant] | 0.728 | 0.795 | 0.971 | 0.918 | 0.608 | 0.471
14 | CCACACUCCAAGGAAUCGGUC [Fam1B.1 aminoacylation ribozyme variant] | 1.34 | 1.08 | 1.31 | 1.35 | 1.32 | 1.46
15 | CCACACUGCAAACAAUCGGUC [Fam1B.1 aminoacylation ribozyme variant] | 0.811 | 1.01 | 1.25 | 1.22 | 0.939 | 1.17
16 | CCACACUGCAAGCAAUCGGAC [Fam1B.1 aminoacylation ribozyme variant] | 0.814 | 1.04 | 1.23 | 1.31 | 1.76 | 0.851
17 | CCACACUGCAAGCAAUCUGUC [Fam1B.1 aminoacylation ribozyme variant] | 0.421 | 0.471 | 0.716 | 0.534 | 0.506 | 0.872
18 | CCACACUGCAAGCAAUGGGUC [Fam1B.1 aminoacylation ribozyme variant] | 1.52 | 1.69 | 1.49 | 1.45 | 1.45 | 1.2
19 | CCACACUGCAAUCAAUCGGUC [Fam1B.1 aminoacylation ribozyme variant] | 0.838 | 0.887 | 0.892 | 1.16 | 0.823 | 1.17
20 | CCACACUGCAUGCAAUCGGUC [Fam1B.1 aminoacylation ribozyme variant] | 0.659 | 0.507 | 0.857 | 0.875 | 0.803 | 0.714
21 | CCACACUUAAAGCAAACGGUC [Fam1B.1 aminoacylation ribozyme variant] | 0.578 | 0.616 | 0.765 | 0.685 | 0.502 | 0.924
22 | CCACACUUCAAACAAUCAGUC [Fam1B.1 aminoacylation ribozyme variant] | 12.4 | 1.16 | 1.06 | 0.947 | 0.771 | 42.2
23 | CCACACUUCAAACAAUGGGUC [Fam1B.1 aminoacylation ribozyme variant] | 0.761 | 0.687 | 0.753 | 0.736 | 0.562 | 0.682
24 | CCACACUUCAACCAAUAGGUC [Fam1B.1 aminoacylation ribozyme variant] | 0.497 | 0.611 | 0.672 | 0.791 | 0.61 | 0.931
25 | CCACACUUCAACCAAUUGGUC [Fam1B.1 aminoacylation ribozyme variant] | 1.05 | 0.765 | 0.808 | 0.845 | 0.846 | 1.5
26 | CCACACUUCAAGAAAACGGUC [Fam1B.1 aminoacylation ribozyme variant] | 0.32 | 0.531 | 0.671 | 0.572 | 0.647 | 0.665

Row | Sequence | self-aminoacylation (biotinyl-Trp-oxazolone) | self-aminoacylation (biotinyl-Leu-oxazolone) | self-aminoacylation (biotinyl-Val-oxazolone) | self-aminoacylation (biotinyl-Ile-oxazolone) | self-aminoacylation (biotinyl-Met-oxazolone) | self-aminoacylation (biotinyl-Phe-oxazolone)
27 | CCACACUUCAAGAAAUCGAUC [Fam1B.1 aminoacylation ribozyme variant] | 0.335 | 0.382 | 0.656 | 0.481 | 0.402 | 1.02
28 | CCACACUUCAAGAAAUGGGUC [Fam1B.1 aminoacylation ribozyme variant] | 0.812 | 0.729 | 0.831 | 0.863 | 0.779 | 0.579
29 | CCACACUUCAAGCAAACCGUC [Fam1B.1 aminoacylation ribozyme variant] | 0.715 | 0.639 | 0.845 | 0.783 | 0.526 | 0.872
30 | CCACACUUCAAGCAACAGGUC [Fam1B.1 aminoacylation ribozyme variant] | 0.576 | 0.667 | 0.87 | 0.669 | 0.626 | 0.739
31 | CCACACUUCAAGCAAUAGAUC [Fam1B.1 aminoacylation ribozyme variant] | 0.55 | 0.499 | 0.687 | 0.616 | 0.578 | 1.22
32 | CCACACUUCAAGCAAUAGGGC [Fam1B.1 aminoacylation ribozyme variant] | 0.711 | 0.774 | 1.08 | 0.98 | 0.627 | 0.832
33 | CCACACUUCAAGCAAUAUGUC [Fam1B.1 aminoacylation ribozyme variant] | 0.555 | 0.501 | 0.722 | 0.552 | 0.429 | 0.828
34 | CCACACUUCAAGCAAUCCUUC [Fam1B.1 aminoacylation ribozyme variant] | 0.533 | 0.44 | 0.899 | 0.89 | 0.649 | 1.19
35 | CCACACUUCAAGCAAUCGAUG [Fam1B.1 aminoacylation ribozyme variant] | 0.746 | 0.598 | 0.665 | 0.571 | 0.534 | 1.01
36 | CCACACUUCAAGCAAUCGCAC [Fam1B.1 aminoacylation ribozyme variant] | 0.672 | 0.465 | 0.889 | 0.76 | 0.814 | 0.785
37 | CCACACUUCAAGCAAUCGCUU [Fam1B.1 aminoacylation ribozyme variant] | 1.93 | 2.09 | 1.77 | 1.83 | 2.06 | 0.996
38 | CCACACUUCAAGCAAUCUGUG [Fam1B.1 aminoacylation ribozyme variant] | 0.383 | 0.657 | 0.635 | 0.514 | 0.547 | 0.656
39 | CCACACUUCAAGCAAUGGCUC [Fam1B.1 aminoacylation ribozyme variant] | 1.09 | 0.847 | 1.1 | 1.26 | 1.22 | 0.411
40 | CCACACUUCAAGCAAUUCGUC [Fam1B.1 aminoacylation ribozyme variant] | 0.733 | 0.589 | 1.05 | 0.917 | 0.684 | 0.998
41 | CCACACUUCAAGCAAUUGGUA [Fam1B.1 aminoacylation ribozyme variant] | 0.594 | 0.901 | 0.964 | 1.25 | 0.699 | 1.24
42 | CCACACUUCAAGCACACGGUC [Fam1B.1 aminoacylation ribozyme variant] | 0.717 | 0.655 | 0.907 | 0.873 | 0.595 | 0.864
43 | CCACACUUCAAGCCAACGGUC [Fam1B.1 aminoacylation ribozyme variant] | 0.708 | 1.04 | 1.05 | 0.84 | 0.806 | 0.532
44 | CCACACUUCAAGCGAACGGUC [Fam1B.1 aminoacylation ribozyme variant] | 0.652 | 0.506 | 0.719 | 0.649 | 0.624 | 0.607
45 | CCACACUUCAAGCGAUCGGUC [Fam1B.1 aminoacylation ribozyme variant] | 1.51 | 0.815 | 1.02 | 0.887 | 0.743 | 1.72
46 | CCACACUUCAAGCGAUCGUUC [Fam1B.1 aminoacylation ribozyme variant] | 0.52 | 0.623 | 0.792 | 0.877 | 0.716 | 0.802
47 | CCACACUUCAAGCGAUCUGUC [Fam1B.1 aminoacylation ribozyme variant] | 0.448 | 0.319 | 0.513 | 0.48 | 0.423 | 0.47
48 | CCACACUUCAAGCUGUCGGUC [Fam1B.1 aminoacylation ribozyme variant] | 0.933 | 0.96 | 1.2 | 0.945 | 0.906 | 0.535
49 | CCACACUUCAAGGAAACGGUC [Fam1B.1 aminoacylation ribozyme variant] | 0.55 | 0.633 | 0.632 | 0.648 | 0.693 | 0.735
50 | CCACACUUCAAGUAAUAGGUC [Fam1B.1 aminoacylation ribozyme variant] | 0.56 | 0.478 | 0.65 | 0.583 | 0.55 | 0.913
51 | CCACACUUCAAGUAAUCGCUC [Fam1B.1 aminoacylation ribozyme variant] | 1.18 | 1.1 | 1.07 | 0.915 | 1.22 | 0.576
